Experimental data: PubChem BioAssay AID686937 (Drosophila RNAi Screening Center, 2013)
The deposit covers about 23,000 reagents; this is an unselected part of those with a known target gene and a result. 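Reduced-secretion tags in replicate 1 do not always agree with the z-scores; no criterion for assigning the tags was given.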 A plus sign joins genes that one reagent is predicted to hit. The record does not give: the amount of reagent.

Test: 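Knock-downs that reduce output of a secreted reporter enzyme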 (primary screen)
System: Drosophila S2 cells expressing secreted horseradish peroxidase
Reagent: long dsRNA against Drosophila genes
Timing: about 5.5 days (5 days dsRNA, then 12 h reporter induction)
Challenge: reporter expression induced after 5 days of dsRNA, read 12 h later; inducer not stated
Read-out: 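Chemiluminescent measurement of peroxidase in the medium 12 h after reporter induction, following 5 days of dsRNA, given as a z-score per plate; higher means more secretion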
Direction: z-score: higher = more reporter secreted into medium

target gene,dsRNA,"z-score, replicate 1","z-score, replicate 2","z-score, replicate 3","z-score, replicate 4","phenotype, replicate 1"
CG5592,DRSC10524,0.51,0.41,,,
Creld,DRSC00308,0.27,0.35,,,
rdo,DRSC02452,0.34,0.13,,,
Hexo1,DRSC08663,0.15,0.18,,,
Gyc88E,DRSC15547,0.24,0.62,,,
Epg5,DRSC14778,0.32,0.42,,,
CG42841,DRSC07962,-0.41,-0.02,,,
CG14369,DRSC14831,0.47,0.08,,,
BBS9,DRSC04257,0.55,0.61,,,
hang,DRSC19901,-0.85,-1.3,,,
hang,DRSC19902,-0.81,-0.38,,,
scat,DRSC02722,0.29,0.36,,,
CAP,DRSC05215,-0.19,0.38,,,
CAP,DRSC06743,0.24,0.24,,,
CAP,DRSC06744,0.16,0.42,,,
CAP,DRSC06745,0.32,0.47,,,
CAP,DRSC06846,0.23,0.29,,,
Lcp65APsi,DRSC08795,0.34,-0.02,,,
Lcp65APsi,DRSC10342,0.37,0.35,,,
CG12691,DRSC17880,0.29,0.34,,,
CRIF,DRSC11811,0.23,-0.1,,,
uzip,DRSC04722,0.23,-0.07,,,
CG31323,DRSC14901,0.37,0.25,,,
pie,DRSC03590,0.22,0.27,,,
CG33768,DRSC11715,-0.13,-0.07,,,
SMC5,DRSC11849,0.54,0.46,,,
CG11356,DRSC19401,0.31,0.58,,,
BOD1,DRSC15824,0.03,0.02,,,
BckdhA,DRSC16395,0.21,0.63,,,
lectin-30A,DRSC02560,-0.01,-0.02,,,
asl,DRSC12319,0.44,0.43,,,
E(spl)m5-HLH,DRSC16695,0.32,0.33,,,
Hydr1,DRSC07063,0.79,0.27,,,
CG31635,DRSC02273,0.83,0.46,,,
CG31635,DRSC02274,-0.85,-0.48,,,
ft,DRSC00819,0.25,0.25,,,
tho2,DRSC00646,-1.1,-1.4,,,
CG6739,DRSC02987,0.33,0.2,,,
AQP,DRSC06122,0.11,0.14,,,
Adar,DRSC17725,0.16,0.3,,,
CG10494,DRSC04072,0.21,0.15,,,
ocm,DRSC04360,0.92,0.37,,,
CG8785,DRSC07266,0.46,0.43,,,
CG6094,DRSC02927,0.14,0.25,0.03,-0.04,
CG6094,DRSC22705,-0.67,-0.48,,,
GatC + PolG2,DRSC03312,0.08,0.19,,,
Iyd,DRSC10614,0.44,0.32,,,
Iyd,DRSC10615,0.21,0.19,,,
CG12011,DRSC08219,0.59,0.13,,,
TMEM216 + CG11760,DRSC14375,0.39,0.55,,,
CG8960,DRSC08612,-0.19,0.01,,,
Nup98-96,DRSC14209,-3.28,-2.47,,,reduced secretion
Nup98-96,DRSC14210,-1.63,-2.61,,,reduced secretion
CG2889,DRSC18236,0.41,0.32,,,
CG6565,DRSC02970,0.13,0.27,,,
RN-tre,DRSC07521,0.08,0.02,,,
CG9331,DRSC03206,0.59,0.6,,,
CG13716,DRSC08325,-0.85,0.39,0.29,-0.61,reduced secretion
CG13716,DRSC22815,-2.14,-1.47,,,reduced secretion
lncRNA:CR42862 + CG33229,DRSC08497,0.26,0.26,,,
CG10845,DRSC14272,0.14,0.21,,,
Snmp1,DRSC16168,-0.33,-0.18,,,
side,DRSC14523,0.32,0.37,0.42,0.35,
side,DRSC14716,0.25,0.26,,,
side,DRSC14717,0.3,0.34,,,
side,DRSC14718,0.27,-0.01,,,
side,DRSC14721,0.52,0.64,,,
Nmd3,DRSC18687,0.38,0.3,,,
Nmd3,DRSC22834,0.56,0.05,,,
CG34396,DRSC04245,0.3,0.39,,,
CG34396,DRSC04246,0.19,0.09,,,
CG11369,DRSC17779,0.31,0.44,,,
CG34221,DRSC06150,-0.42,-0.12,,,
CG10859,DRSC02110,0.31,0.34,,,
CG13046,DRSC09927,0.22,0.27,,,
sgg,DRSC17228,0.38,0.19,,,
sgg,DRSC17722,0.36,-0.28,,,
sgg,DRSC18832,0.18,0.37,,,
CG17207,DRSC15198,0.16,-0.21,,,
RanBP3,DRSC14217,-0.22,-0.39,,,
CG34149,DRSC14537,0.29,0.26,,,
Dpm1,DRSC02018,-0.07,0.15,,,

7 of these entries in another layout.
{"target gene":"CG10859","dsRNA":"DRSC02110","z-score, replicate 1":0.31,"z-score, replicate 2":0.34}
{"target gene":"CG13046","dsRNA":"DRSC09927","z-score, replicate 1":0.22,"z-score, replicate 2":0.27}
{"target gene":"sgg","dsRNA":"DRSC17228","z-score, replicate 1":0.38,"z-score, replicate 2":0.19}
{"target gene":"sgg","dsRNA":"DRSC17722","z-score, replicate 1":0.36,"z-score, replicate 2":-0.28}
{"target gene":"sgg","dsRNA":"DRSC18832","z-score, replicate 1":0.18,"z-score, replicate 2":0.37}
{"target gene":"CG17207","dsRNA":"DRSC15198","z-score, replicate 1":0.16,"z-score, replicate 2":-0.21}
{"target gene":"RanBP3","dsRNA":"DRSC14217","z-score, replicate 1":-0.22,"z-score, replicate 2":-0.39}
